The other results are listed elsewhere or left out. The main result of the screen is listed elsewhere. These columns were measured beside it and carry no call. Compounds called inactive in the main read-out are mostly missing here. Words in brackets tell the shape of the fitted curve; partial curves, single points and poor fits give uncertain potencies.
Assay: qHTS Assay to Find Inhibitors of Chronic Active B-Cell Receptor Signaling
Details: ABC-DLBCL IkBa-CBG/CBR reporter, luminescence ratio (green luciferase fused to IkBa over red control in TMD8 lymphoma cells), 4 h
How it was run: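 TMD8 human ABC-DLBCL cells with doxycycline-inducible IκBα–green luciferase fusion and unfused red luciferase, in 0.5% FBS medium; compounds up to 46 uM, 4 h at 37C. Green/red luminescence ratio, filter-overlap corrected, fitted to concentration-response curves.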

[1] = measured here: CBR red luminescence, cell number
[2] = measured here: IkBa-CBG green luminescence

Compound | AC50 [1] | AC50 [2]
S=C(c1ccc(-c2ccc(Cl)c(Cl)c2)o1)N1CCOCC1 | 5.8 µM [rising, partial curve, poor fit] | 
CCCc1cc(-c2n[nH]c(=S)n2Cc2ccccc2)cs1 | 7.31 µM [rising, single point] | 
CCOC(=O)N1CCN(c2ncnc3c2[nH]c2ccc(F)cc23)CC1 | 14.1 µM [falling, partial curve, poor fit] | 
Cc1ccc(C(=O)NCC(c2cccs2)S(=O)(=O)c2cccs2)cc1C (stereo unspecified) | 22.4 µM [rising, single point] | 
Cc1[nH]c2ccccc2c1C(=O)C(=O)NCCC1=CCCCC1 | 23.1 µM [rising, single point] | 
Cc1ccc(S(=O)(=O)NC(=O)Nc2ccc(Cl)cn2)cc1 | 8.91 µM [rising, partial curve] | 
C#CCOc1c(Cl)cc(/C=N/O)cc1OC | 3.66 µM [rising, partial curve] | 
COc1cccc(C(=O)Nc2ccc(C)cc2)c1 | 9.2 µM [falling, partial curve, poor fit] | 
Clc1ccc2nc(C3CCN(Cc4nnnn4C4CCCCC4)CC3)[nH]c2c1 | 0.0651 µM [falling, full curve, poor fit] | 
Cc1ccc(C)c(NC(=S)Nc2ncccc2C)c1 | 17.8 µM [falling, single point] | 
O=C(NC(=S)NNC(=O)[C@H]1C[C@@H]1c1ccccc1)c1cccc(F)c1 | 5.01 µM [rising, full curve, poor fit] | 
COc1ccc(NC(=O)CC2C(=O)N(c3ccc(OC)cc3)C(=O)N2C(C)C)cc1 (stereo unspecified) | 29.1 µM [rising, single point] | 
CN(Cc1nc(-c2cccnc2)no1)S(=O)(=O)c1ccccc1 | 0.326 µM [rising, full curve, poor fit] | 
CCOC(=O)C(CC)Sc1nc2c(cnn2-c2ccccc2)c(=O)[nH]1 (stereo unspecified) | 8.2 µM [rising, partial curve, poor fit] | 
Cc1nn(C)cc1/C=C/C(=O)c1ccccc1 | 16.4 µM [falling, partial curve] | 
CCOc1cc(C(=O)Nc2ccc(S(=O)(=O)NC3=NCCCCC3)cc2)cc(Br)c1OC | 20.6 µM [falling, partial curve, poor fit] | 
COc1cc2c(cc1OC)C1=NC(=O)CN1C(SCc1ccc(C)cc1)=N2 | 10.3 µM [falling, partial curve, poor fit] | 
COC(=O)CC1Oc2ccc(C)cc2NC1=O (stereo unspecified) | 5.8 µM [rising, single point] | 
Cc1ccc(-c2nc3ccc([N+](=O)[O-])cc3[nH]2)cc1 | 17.8 µM [falling, single point] | 
O=[N+]([O-])c1cc([N+](=O)[O-])c2oc(-c3ccccc3)c(Br)c2c1O | 5.62 µM [rising, single point] | 
COc1ccc(/C(N)=C/C(=O)C(C)(C)C)cc1 | 10 µM [rising, partial curve] | 
COc1ccc(S(=O)(=O)N2Cc3ccccc3CC2C(=O)Nc2nccs2)cc1 (stereo unspecified) | 3.98 µM [rising, single point] | 

A few values from the list:
Entry for `Cc1[nH]c2ccccc2c1C(=O)C(=O)NCCC1=CCCCC1` under AC50 [1]: 23.1 µM [rising, single point]
Entry for `Cc1nn(C)cc1/C=C/C(=O)c1ccccc1` under AC50 [1]: 16.4 µM [falling, partial curve]
Entry for `O=[N+]([O-])c1cc([N+](=O)[O-])c2oc(-c3ccccc3)c(Br)c2c1O` under AC50 [1]: 5.62 µM [rising, single point]
Entry for `Cc1ccc(C)c(NC(=S)Nc2ncccc2C)c1` under AC50 [1]: 17.8 µM [falling, single point]
Entry for `COc1ccc(/C(N)=C/C(=O)C(C)(C)C)cc1` under AC50 [1]: 10 µM [rising, partial curve]

The results go on.

Compound | AC50 [1] | AC50 [2]
COc1cccc(C(=O)N2N=C(c3ccccn3)CC2(O)C(F)(F)F)c1 (stereo unspecified) | 35.5 µM [falling, single point] | 
Cc1ccc(CN=c2c([N+](=O)[O-])nn(-c3cccc(C)c3)n2O)cc1 |  | 2.82 µM [rising, full curve, poor fit]
O=C(N/N=C/c1cc(Cl)ccc1O)C(=O)Nc1ccccc1OC(F)(F)C(F)F | 29.1 µM [falling, single point] | 6.51 µM [falling, single point]
CSCCC(NC(=O)c1ccccc1)C(=O)NCCCn1nc(C)cc1C (stereo unspecified) | 29.1 µM [rising, single point] | 
COc1ccc(CCNc2cc(C)nc3c(-c4ccccc4)c(C)nn23)cc1OC | 29.1 µM [falling, single point] | 
COc1ccc(C(=O)C2CCCN(Cc3c(C)[nH]c4ccccc34)C2)c(OC)c1 (stereo unspecified) | 35.5 µM [falling, single point] | 
O=C(O)c1cccc(NC(=S)NC(=O)c2cccc(OCc3ccccc3)c2)c1 | 35.5 µM [falling, single point] | 
CCOC(=O)COc1ccc(S(=O)(=O)c2ccc(OCC(=O)OCC)cc2)cc1 | 16.4 µM [falling, single point] | 
Clc1ccccc1CNc1ncnc2nc[nH]c12 | 7.31 µM [falling, partial curve] | 
CCc1nnc(NC(=O)CCC(=O)N2CCN(Cc3cc(Cl)ccc3OC)CC2)s1 | 25.1 µM [falling, single point] | 
Cc1ccc2cc(CN(C)S(C)(=O)=O)c(=O)[nH]c2c1 | 7.94 µM [rising, partial curve, poor fit] | 
CC(=O)Nc1ccc(NC(=O)c2ccc(S(=O)(=O)N(C)c3ccccc3)cc2)cc1 | 25.9 µM [rising, single point] | 
S=c1[nH]nc(COc2ccc(Cl)cc2)o1 | 10 µM [falling, partial curve, poor fit] | 
CCCc1cc(=O)oc2c(C)c(OCC(=O)NCCCn3ccnc3)ccc12 | 35.5 µM [rising, single point] | 
Cc1[nH]n(-c2ccc([N+](=O)[O-])cc2)c(=O)c1C=NCCc1ccc(S(N)(=O)=O)cc1 | 11.2 µM [falling, single point] | 
COc1cc(OC)c(C2=NOC(C(=O)NCc3cccs3)C2)cc1Cl (stereo unspecified) | 35.5 µM [rising, single point] | 22.4 µM [falling, single point]
COc1ccccc1/C=C1\SC(=S)N(CCC(=O)NNC(=O)c2ccccc2OC)C1=O | 3.55 µM [falling, full curve, poor fit] | 
Cc1ccc(NC(=O)[C@H](C)NC(=O)C2CCN(C(=O)[C@@H](N)CC(C)C)CC2)cc1 | 31.6 µM [rising, single point] | 
O=C(CCCn1c(SCC(=O)Nc2ccccc2Cl)nc2ccccc2c1=O)NCC1CCCO1 (stereo unspecified) | 10 µM [falling, partial curve, poor fit] | 
O=C(O)c1cccc(-c2nnn(Cc3ccccc3Cl)n2)c1 | 0.651 µM [rising, full curve, poor fit] | 
C[C@@]12C(=O)Nc3cc(Cl)ccc3C(=O)N1[C@H]1c3cc(Cl)ccc3OC[C@@H]1[C@@H]2c1ccccc1 | 2.91 µM [falling, full curve] | 
COc1cc(NC(=S)NC(=O)c2cccs2)ccc1NC(=O)C(C)C | 3.98 µM [falling, full curve, poor fit] | 

Compound | AC50 [1] | AC50 [2]
Cc1cccc(C)c1NC(=O)c1nc(S(=O)(=O)Cc2ccccc2)ncc1Cl | 35.5 µM [falling, single point] | 
O=C(NC1CCCC1)C(c1ccsc1)N(Cc1ccco1)C(=O)Cc1cccs1 (stereo unspecified) | 35.5 µM [falling, single point] | 
O=C(CN1C(=O)COc2ccc(Cl)cc21)Nc1nccs1 | 20.6 µM [rising, single point] | 
CCc1ccc(/C=C(\Cl)c2nc3cc(Cl)ccc3c(=O)[nH]2)cc1 | 23.1 µM [falling, single point] | 
CC1(OC(=O)CCc2ccccc2)C(=O)C=C2C=C(c3ccc(C#N)cc3)N(C3CCCCC3)C=C2C1=O (stereo unspecified) | 5.62 µM [rising, single point] | 
CC(=O)Nc1nnc(SCC(=O)c2ccc(F)cc2)s1 | 20 µM [falling, single point] | 
O=C1OC(c2ccc(Cl)cc2)=N/C1=C\C=C\c1ccco1 | 35.5 µM [falling, single point] | 
CCOc1ccccc1NC(=O)Nc1cc(S(=O)(=O)N(C)C)ccc1C | 6.31 µM [rising, partial curve, poor fit] | 
O=C(CCCN1C(=O)/C(=C\c2ccccc2)SC1=S)Nc1ccc(O)cc1C(=O)O | 3.98 µM [falling, partial curve] | 
CCN(CC)CCCN(Cc1cc2cc(OC)c(OC)cc2[nH]c1=O)C(=O)Nc1ccccc1 | 9.2 µM [rising, partial curve, poor fit] | 
Cc1oncc1C(=O)NC(C)C | 29.1 µM [rising, single point] | 
CCOc1ccc(C(c2c(C)[nH][nH]c2=O)c2c(C)[nH][nH]c2=O)cc1OCC | 29.1 µM [falling, single point] | 
Cn1ncc(Br)c1NC(=O)Nc1ccc(OC(F)(F)F)cc1 | 0.708 µM [rising, full curve, poor fit] | 
CCOc1ccccc1NC(=O)CSc1nnc(NC(=O)c2ccco2)s1 | 0.224 µM [falling, full curve, poor fit] | 
O=c1cc(CSc2ccccn2)c2ccccc2[nH]1 | 2.59 µM [falling, partial curve, poor fit] | 
Cc1ccccc1S(=O)(=O)Cc1ccc(C(=O)NC2CCCCCC2)o1 | 0.447 µM [falling, full curve, poor fit] | 
CC(C)(C)c1nc(NC(=O)Nc2ccccc2)sc1Br | 35.5 µM [falling, single point] | 
COc1ccc(OC)c(S(=O)(=O)Nc2c(NC3CCCCC3)c3ccccc3oc2=O)c1 | 20 µM [falling, partial curve, poor fit] | 
CCOC(=O)C1CCN(C(=O)CCCOc2ccccc2)CC1 | 32.6 µM [falling, single point] | 
CCCCCCNC(=O)CCc1nc2cccnc2n1Cc1ccc(OC)cc1 | 11.2 µM [falling, single point] | 

Source: PubChem BioAssay AID493014 (National Center for Advancing Translational Sciences (NCATS), 2011)
